Measurements: paper PMC12040169 (PLOS Biology, 2025)
The list shows a part of the results.

tested on: T1, CTL2-GFP (C. trachomatis L2/434/Bu, GFP-expressing); parameters: species or system HeLa; Intracellular C. trachomatis growth in HeLa cells, bulk GFP fluorescence relative to DMSO; settings: bulk GFP, single well; 28.5 h, 10 µM; inhibitor
T1 construct: L2/434/Bu, GFP-expressing

Row | SMILES | % of control remaining [%]
1 | OCc1cccc(-c2cncc(NC3CCC(O)CC3)n2)c1 (stereo not shown) [CBK065448] | 115.099
2 | CC12CCC(C(=O)O)(C/C1=N\N)C2(C)C (stereo not shown) [CBK265268] | 100
3 | Cc1ccc(CCCC(=O)N2CCc3c([nH]c4c(C)cccc34)C23CCN(Cc2ccc(F)cc2)C3)cc1 (stereo not shown) [CBK066979] | 79.8214
4 | CCN1CCN(Cc2c(O)ccc3c(=O)c(-c4ccccc4OC)c(C(F)(F)F)oc23)CC1 [CBK263692] | 100
5 | Cc1ccc(C(=O)N2CCC(Cc3ccccc3)CC2)cn1 [CBK200179] | 95.3698
6 | CCc1nn(CC(=O)OC(C)C)c(=O)c2cc3sccc3n12 [CBK284076] | 133.473
7 | O=S(=O)(Nc1cc(-c2ccco2)n[nH]1)c1ccc(Br)cc1C(F)(F)F [CBK067286] | 139.646
8 | O=S(=O)(c1ccc(C(F)(F)F)cc1Cl)N1CCCN(Cc2ccc(F)cc2F)CC1 [CBK062946] | 125.262
9 | Cc1ccc2c(c1)c(-c1ccccc1)c(-c1ccccc1)n2CC(O)Cn1cnc(-c2ccccc2)c1-c1ccccc1 (stereo not shown) [CBK262531] | 100
10 | O=C(NCO)c1ccccc1O [CBK012717] | 127.75
11 | COc1ccc(CCNC(=O)N2CCN(c3cc(C(F)(F)F)ccn3)CC2)cc1OC [CBK162330] | 103.66
12 | Cc1[nH]c(=O)[nH]c(=O)c1S(=O)(=O)Nc1ccc(S(N)(=O)=O)cc1 [CBK262123] | 102.119
13 | C=CCNC(=O)[C@@H]1C=CCN1S(=O)(=O)c1ccc(Cl)cc1 [CBK284318] | 126.078
14 | COc1ccc(CN2C(=O)CC(c3ccccc3)C2=O)cc1 (stereo not shown) [CBK002055] | 172.498
15 | CSCCN1CCCN(c2nccc(OCC3COc4ccccc4O3)n2)CC1 (stereo not shown) [CBK083978] | 103.423
16 | COc1ccc(OCC(=O)Nc2ccccc2N2CCN(S(C)(=O)=O)CC2)cc1 [CBK269177] | 153.586
17 | CN1CCN(c2ncc(-c3ccc(N4CCOCC4)cc3)n3ccnc23)CC1 [CBK091226] | 86.6158
18 | CCCCc1ccc(-c2ccc(-c3cc(C(=O)O)c4cc(C)ccc4n3)o2)cc1 [CBK300528] | 106.758
19 | O=C1c2ccccc2C(=O)N1CCc1nc2ccccc2c(=O)n1-c1nc2ccccc2s1 [CBK266358] | 129.748
20 | NC(=O)NC(CC(=O)N1CCOC2CCCCC21)c1cccc(Br)c1 (stereo not shown) [CBK306299] | 108.232

2 entries drawn at random from those above, as already listed:
Row | SMILES | % of control remaining [%]
15 | CSCCN1CCCN(c2nccc(OCC3COc4ccccc4O3)n2)CC1 (stereo not shown) [CBK083978] | 103.423
17 | CN1CCN(c2ncc(-c3ccc(N4CCOCC4)cc3)n3ccnc23)CC1 [CBK091226] | 86.6158

Remaining list, next part.

Row | SMILES | % of control remaining [%]
21 | Cc1cnc(NC(=O)Cc2ccc(F)cc2)s1 [CBK288249] | 149.542
22 | COC(=O)c1ccc(NC(=O)N(Cc2cnn(C)c2)CC(C)C)cc1Cl [CBK304387] | 100.955
23 | c1ccc(Oc2ccccc2-c2cc(N3CCC(N4CCCCC4)CC3)ncn2)cc1 [CBK037728] | 121.758
24 | O=[N+]([O-])c1ccccc1S(=O)(=O)N1CCN(Cc2cccc(Oc3ccccc3)c2)CC1 [CBK264283] | 115.433
25 | Cc1cc(-c2ccccc2)sc1C(=O)/C=C(\O)C(=O)O [CBK263198] | 125.619
26 | CSc1ccc(CN(C)c2cncc(-n3cccn3)n2)cc1 [CBK298326] | 161.094
27 | O=S(=O)(Nc1ccccn1)N1CCCCC1 [CBK269490] | 144.986
28 | Cc1cc(NC(=O)c2cc([N+](=O)[O-])ccc2Cl)nc2c1c(=O)oc1ccccc12 [CBK291258] | 110.092
29 | Cc1csc2c(C3CCCN(C(=O)c4ccncc4)C3)nc(C)n12 (stereo not shown) [CBK285213] | 126.407
30 | Cc1cc(C)n(CCCC(=O)N2CCC3(CC2)CC(=O)N(C)C3)n1 [CBK306905] | 127.353
31 | CC(=O)NC1(c2ccc(F)cc2)CCN(C(=O)C(C)C)CC1 [CBK283491] | 99.6912
32 | COCCn1c(SCCC(=O)O)nc2c1c(=O)[nH]c(=O)n2C [CBK139751] | 109.094
33 | O=c1c2ccccc2nc(S)n1CC(O)c1ccccc1 (stereo not shown) [CBK288386] | 160.576
34 | Sc1nnc(COc2ccccc2)n1/N=C/c1ccc(-c2ccccc2)cc1 [CBK265269] | 100.996
35 | CCCC/C=C/c1cn2ccnc2c(Nc2cccc(OCC(=O)N(C)C)c2)n1 [CBK066185] | 112.067
36 | O=C(CCc1ccco1)N1CCCC1c1nc2ccccc2[nH]1 (stereo not shown) [CBK283767] | 97.3629
37 | Cc1ccc(C2(CN3CCN(Cc4cnc(C)n4C)CC3)CC2)cc1 [CBK282469] | 128.279
38 | CC1=C(c2ccc(OC(C)(C)CN3CCCC3)cc2)C(C)CCC1 (stereo not shown) [CBK012357C] | 117.001
39 | CC(C)n1c(=O)n(CC(=O)NCc2ccccc2)c2cccnc21 [CBK283758] | 102.544
40 | Cc1ccc(-n2ncc3c2NC(=O)N2CCN=C32)cc1 [CBK284345] | 113.943
